Experimental findings from PMC7819943, “Rice protein-binding microarrays: a tool to detect cis-acting elements near promoter regions in rice” are described below.

Amino acid sequences for entries named in this document (tags omitted).
UniProt Q0JBA9, entry or part of it: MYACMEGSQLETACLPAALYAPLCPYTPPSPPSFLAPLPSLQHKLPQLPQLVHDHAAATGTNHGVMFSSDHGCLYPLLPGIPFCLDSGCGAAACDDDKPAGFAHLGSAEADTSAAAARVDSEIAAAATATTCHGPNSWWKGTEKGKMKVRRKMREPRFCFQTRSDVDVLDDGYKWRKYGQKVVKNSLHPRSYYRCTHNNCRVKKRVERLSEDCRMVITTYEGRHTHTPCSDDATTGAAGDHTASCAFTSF

The other results are listed elsewhere or left out.

The target in the assay is OsWRKY34 (Oryza sativa, UniProt Q0JBA9 1-250). Nature of the assay: protein-binding microarray (RPBM); PBS, 2% BSA, 51.3 ng/ul salmon testes DNA, 50 uM zinc acetate, 200 nM TF, 25 C, 1 h; high values mean tight binding. The conditions noted are these: protein: recombinant; tags: N-terminal polyhistidine and DsRed monomer fusion (pET32a); label: CyDye5-dUTP incorporated in the synthesized complementary strand; 3' TTTTT single-stranded linker to array surface; dsDNA, one strand shown. In short, it runs like this: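 Transcription factors were made in E. coli BL21-CodonPlus as N-terminal fusions to a polyhistidine tag and DsRed, then purified on Ni–NTA. After primer extension with Cy5-dUTP and blocking with 2% BSA, a custom Agilent array was exposed for 1 h at 25 °C to 200 nM protein in PBS, 2% BSA, salmon testes DNA and 50 µM zinc acetate. Washed arrays were scanned on an Axon 4000B, and the binding signal is per-feature fluorescence intensity in arbitrary units.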
For the sequence “GGGCTATATGTTGCTAGCATTGCAAGCGCACTTGCCTTCACGGAGTCACCTAGTGCAG”, the binding signal is 8970 fluorescence intensity (a.u.).

In the case of “CTCCTAATATGATACATAACGCTGAACTACATACACTTATCGGAGTCACCTAGTGCAG”, the binding signal was 8220 fluorescence intensity (a.u.).

Take “TCCACTTCTCCTCCACACTTCACGGCTCCTTCACTCCTCCCGGAGTCACCTAGTGCAG”: the binding signal was 8590 fluorescence intensity (a.u.).

For “GGTTTGTTGCTCCGTGCTTCTACTCTTTCTTCCCCGCAATCGGAGTCACCTAGTGCAG”, the binding signal is 8050 fluorescence intensity (a.u.).

Take “AATGCACGGGAGGGTGCCGCCTGGCCTTTCCACCGTCGCTCGGAGTCACCTAGTGCAG”: the binding signal is 9200 fluorescence intensity (a.u.).

Turning to “TTCTGCTTGGCTGTGGTGGTGGCTGTGGTGGTGGGCAAAGCGGAGTCACCTAGTGCAG”, the binding signal is 8670 fluorescence intensity (a.u.).

With “AATTTATTGGGGTGACGTGTATCGGTCGATTAATTTACTTCGGAGTCACCTAGTGCAG”, the binding signal is 9420 fluorescence intensity (a.u.).

As for “CCCACCGCAATCTCGTTTCGGCTCTCCGGCCCTCTCCTAGCGGAGTCACCTAGTGCAG”, the binding signal is 9940 fluorescence intensity (a.u.).

As for “TGTTGTCAGTACATACTCTGGTTAATCTGCAATTCTGCATCGGAGTCACCTAGTGCAG”, the binding signal is 8200 fluorescence intensity (a.u.).

On to “TAGTTATGCCACATGTGTTTATTTTGTTGTCGCACCTATACGGAGTCACCTAGTGCAG”, for which the binding signal is 8720 fluorescence intensity (a.u.).

As to “ACCGCTGCCAGAGAAATTCTGACCCATGCTCATAACACAACGGAGTCACCTAGTGCAG”, the binding signal was 9960 fluorescence intensity (a.u.).

For “GCTGTATATGTCGCCATGTTGGTTCTATGCTCTTATATTTCGGAGTCACCTAGTGCAG”, the binding signal was 11500 fluorescence intensity (a.u.).

With “GTGCCACTCTGTCTCTTCCGTCCATAGCGCCGTCGTCTTCCGGAGTCACCTAGTGCAG”, the binding signal was 17300 fluorescence intensity (a.u.).

Consider “TCCCTCTTATTCACCGCACCTATCGCCGAGCTCCTCGTCGCGGAGTCACCTAGTGCAG”, for which the binding signal is 10100 fluorescence intensity (a.u.).

Regarding “GCTTTTCATTTGTTTACACGGATTTATGGCGGTTTGCAGTCGGAGTCACCTAGTGCAG”, the binding signal was 8830 fluorescence intensity (a.u.).

Regarding “TTGCATTACCGGTTTCTCCCGCACATTAACTGATCACACCCGGAGTCACCTAGTGCAG”, the binding signal was 8660 fluorescence intensity (a.u.).

With “CTGGTGGTCGGTTCAGTCGGGCGGGCGGGCGGGCTCACCGCGGAGTCACCTAGTGCAG”, the binding signal is 22800 fluorescence intensity (a.u.).

Turning to “CTGGGTTGCTGGTTCTTTTTCTGCTCTTTTCATTTACAAACGGAGTCACCTAGTGCAG”, the binding signal is 13700 fluorescence intensity (a.u.).

As to “CAGTCCTCACACGTTCTCTTCCTCTCTCTCTCTCTCACTCCGGAGTCACCTAGTGCAG”, the binding signal was 10400 fluorescence intensity (a.u.).

Consider “ATGTTATCATGTATTCACCGTCTCCGGGCCTATGAGCATTCGGAGTCACCTAGTGCAG”, for which the binding signal is 8430 fluorescence intensity (a.u.).

Take “GATGCTTATGATGTCTAGTACGGTATACATGTCAACAAGACGGAGTCACCTAGTGCAG”: the binding signal was 8890 fluorescence intensity (a.u.).

In the case of “TCTCCCATCTTTTATTGCCATTTGTCATTACTGTTCTAGACGGAGTCACCTAGTGCAG”, the binding signal was 13800 fluorescence intensity (a.u.).

In the case of “TTGGCCTCTTGTATACTACCATTTGCAACAATAAAGCTTTCGGAGTCACCTAGTGCAG”, the binding signal is 8810 fluorescence intensity (a.u.).

“ATCTCTTCCTCAATCTGCTTATTTCTTCTCTTGTAAGAATCGGAGTCACCTAGTGCAG”: the binding signal is 8890 fluorescence intensity (a.u.).

Consider “GCCGTCCGTTGACCGCACGCACCGCACGAATCTCGAGGCGCGGAGTCACCTAGTGCAG”, for which the binding signal is 10800 fluorescence intensity (a.u.).

Consider “TCTTTTTCTATGCATGTGCGCTTATGGTGGAGTGGTGATACGGAGTCACCTAGTGCAG”, for which the binding signal is 9140 fluorescence intensity (a.u.).

Regarding “TAGTATGTTTGTAATATCGATATTGGCCTATATATATTTGCGGAGTCACCTAGTGCAG”, the binding signal is 9310 fluorescence intensity (a.u.).

Consider “CGCCCACTTGACTATTTCGTGGACCCTTCCTGTCTTGTCCCGGAGTCACCTAGTGCAG”, for which the binding signal was 11600 fluorescence intensity (a.u.).

On to “TTTTTTGTGGTTTTCTTATTTGACCCTATTTTTTAAAACTCGGAGTCACCTAGTGCAG”, for which the binding signal is 8160 fluorescence intensity (a.u.).

In the case of “CGTTCTCGTACGCACTTTGTCCCTACCATTGGTGATTGCTCGGAGTCACCTAGTGCAG”, the binding signal was 11900 fluorescence intensity (a.u.).

With “TTGTTCTTCTTTTTTGGTCTGGTTTTTTTTGTGGTTTCTTCGGAGTCACCTAGTGCAG”, the binding signal is 16700 fluorescence intensity (a.u.).

Turning to “GCATGTGGCTTAAACTTTTTGGTTGGATATTTGCTTGTAACGGAGTCACCTAGTGCAG”, the binding signal is 9440 fluorescence intensity (a.u.).

As to “TTTGTTTCTAGCATTTTCAATTTGAGTTTCATTAATTCATCGGAGTCACCTAGTGCAG”, the binding signal was 10200 fluorescence intensity (a.u.).

Consider “ATCAACCTTTCTAGCTGGCTATCTGTACTTTGATTTATCACGGAGTCACCTAGTGCAG”, for which the binding signal is 13500 fluorescence intensity (a.u.).

Consider “CCTCCCGCGGAAGCACACCAACCGCTTGCCGAACGTACCACGGAGTCACCTAGTGCAG”, for which the binding signal is 10800 fluorescence intensity (a.u.).

For “CACTCTTACCCGACTCTGCCTAACCGTCAGCCCCGTCCTGCGGAGTCACCTAGTGCAG”, the binding signal was 11200 fluorescence intensity (a.u.).

Take “AATGTATGTAACTGCATTACACTTGTCCATTTCTCAGTTACGGAGTCACCTAGTGCAG”: the binding signal was 10500 fluorescence intensity (a.u.).

As to “TGTTTCTATTCTTTATTTTGGTTTAATACTCCCTCATTCCCGGAGTCACCTAGTGCAG”, the binding signal is 10100 fluorescence intensity (a.u.).

For “TCTTGTTCATTTCTCTCTTGCTCCGGCTCGCCTCGCATCGCGGAGTCACCTAGTGCAG”, the binding signal was 8300 fluorescence intensity (a.u.).

Take “TAATAACCGTTTTGATCTAATCCACCTGCTCCCGTCGCGTCGGAGTCACCTAGTGCAG”: the binding signal is 9450 fluorescence intensity (a.u.).

In the case of “AAGTTTAGGTTTTGGGTATACCAACCATTCACACCTCCCTCGGAGTCACCTAGTGCAG”, the binding signal was 8420 fluorescence intensity (a.u.).

For the sequence “AGCTTCGTCGCTGCCATATCCATTGTCGTTAACCGTCAACCGGAGTCACCTAGTGCAG”, the binding signal was 11300 fluorescence intensity (a.u.).
